Assay results from patent publication US20190111114A1 (BRIGHAM AND WOMEN S HOSPITAL, published 2019).
These are yes or no findings as the source states them, for the method shown. In cells and extracts the contact can be indirect. Some entries that bind do so weakly or less than the wild type.

By UniProt entry, the sequences of proteins in these tests, tags left out. Where a name states a change or a piece, a line headed by the entry shows the natural chain unless it says otherwise.
UniProt O95365: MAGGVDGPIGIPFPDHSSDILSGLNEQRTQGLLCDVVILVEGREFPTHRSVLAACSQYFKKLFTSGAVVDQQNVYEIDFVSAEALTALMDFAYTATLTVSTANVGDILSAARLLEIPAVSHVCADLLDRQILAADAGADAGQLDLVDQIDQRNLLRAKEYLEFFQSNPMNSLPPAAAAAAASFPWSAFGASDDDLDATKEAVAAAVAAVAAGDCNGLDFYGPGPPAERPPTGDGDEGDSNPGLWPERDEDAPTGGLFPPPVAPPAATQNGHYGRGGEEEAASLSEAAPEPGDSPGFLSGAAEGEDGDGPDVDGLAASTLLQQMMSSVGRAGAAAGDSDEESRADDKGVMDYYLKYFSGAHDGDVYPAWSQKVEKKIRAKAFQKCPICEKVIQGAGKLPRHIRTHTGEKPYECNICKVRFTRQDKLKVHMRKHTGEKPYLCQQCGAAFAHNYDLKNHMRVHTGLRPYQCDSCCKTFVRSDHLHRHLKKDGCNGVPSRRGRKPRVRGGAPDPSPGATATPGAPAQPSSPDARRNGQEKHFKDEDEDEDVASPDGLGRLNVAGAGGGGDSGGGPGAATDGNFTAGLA
UniProt Q8WXI9: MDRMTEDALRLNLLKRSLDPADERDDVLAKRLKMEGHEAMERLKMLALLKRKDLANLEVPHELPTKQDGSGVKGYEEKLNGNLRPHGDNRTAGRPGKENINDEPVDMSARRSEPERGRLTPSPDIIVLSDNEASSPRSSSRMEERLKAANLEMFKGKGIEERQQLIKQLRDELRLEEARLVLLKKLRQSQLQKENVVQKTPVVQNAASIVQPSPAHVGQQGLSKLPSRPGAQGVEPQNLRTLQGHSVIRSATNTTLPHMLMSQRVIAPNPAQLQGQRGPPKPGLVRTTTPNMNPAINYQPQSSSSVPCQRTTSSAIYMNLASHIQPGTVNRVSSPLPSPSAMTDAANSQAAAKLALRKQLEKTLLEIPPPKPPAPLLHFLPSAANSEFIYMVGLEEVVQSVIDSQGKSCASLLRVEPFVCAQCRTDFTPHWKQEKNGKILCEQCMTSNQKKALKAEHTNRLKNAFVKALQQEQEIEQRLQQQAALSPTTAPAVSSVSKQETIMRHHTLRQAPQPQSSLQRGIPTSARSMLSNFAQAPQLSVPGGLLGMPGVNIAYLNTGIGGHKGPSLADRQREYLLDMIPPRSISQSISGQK
UniProt Q9NRL2: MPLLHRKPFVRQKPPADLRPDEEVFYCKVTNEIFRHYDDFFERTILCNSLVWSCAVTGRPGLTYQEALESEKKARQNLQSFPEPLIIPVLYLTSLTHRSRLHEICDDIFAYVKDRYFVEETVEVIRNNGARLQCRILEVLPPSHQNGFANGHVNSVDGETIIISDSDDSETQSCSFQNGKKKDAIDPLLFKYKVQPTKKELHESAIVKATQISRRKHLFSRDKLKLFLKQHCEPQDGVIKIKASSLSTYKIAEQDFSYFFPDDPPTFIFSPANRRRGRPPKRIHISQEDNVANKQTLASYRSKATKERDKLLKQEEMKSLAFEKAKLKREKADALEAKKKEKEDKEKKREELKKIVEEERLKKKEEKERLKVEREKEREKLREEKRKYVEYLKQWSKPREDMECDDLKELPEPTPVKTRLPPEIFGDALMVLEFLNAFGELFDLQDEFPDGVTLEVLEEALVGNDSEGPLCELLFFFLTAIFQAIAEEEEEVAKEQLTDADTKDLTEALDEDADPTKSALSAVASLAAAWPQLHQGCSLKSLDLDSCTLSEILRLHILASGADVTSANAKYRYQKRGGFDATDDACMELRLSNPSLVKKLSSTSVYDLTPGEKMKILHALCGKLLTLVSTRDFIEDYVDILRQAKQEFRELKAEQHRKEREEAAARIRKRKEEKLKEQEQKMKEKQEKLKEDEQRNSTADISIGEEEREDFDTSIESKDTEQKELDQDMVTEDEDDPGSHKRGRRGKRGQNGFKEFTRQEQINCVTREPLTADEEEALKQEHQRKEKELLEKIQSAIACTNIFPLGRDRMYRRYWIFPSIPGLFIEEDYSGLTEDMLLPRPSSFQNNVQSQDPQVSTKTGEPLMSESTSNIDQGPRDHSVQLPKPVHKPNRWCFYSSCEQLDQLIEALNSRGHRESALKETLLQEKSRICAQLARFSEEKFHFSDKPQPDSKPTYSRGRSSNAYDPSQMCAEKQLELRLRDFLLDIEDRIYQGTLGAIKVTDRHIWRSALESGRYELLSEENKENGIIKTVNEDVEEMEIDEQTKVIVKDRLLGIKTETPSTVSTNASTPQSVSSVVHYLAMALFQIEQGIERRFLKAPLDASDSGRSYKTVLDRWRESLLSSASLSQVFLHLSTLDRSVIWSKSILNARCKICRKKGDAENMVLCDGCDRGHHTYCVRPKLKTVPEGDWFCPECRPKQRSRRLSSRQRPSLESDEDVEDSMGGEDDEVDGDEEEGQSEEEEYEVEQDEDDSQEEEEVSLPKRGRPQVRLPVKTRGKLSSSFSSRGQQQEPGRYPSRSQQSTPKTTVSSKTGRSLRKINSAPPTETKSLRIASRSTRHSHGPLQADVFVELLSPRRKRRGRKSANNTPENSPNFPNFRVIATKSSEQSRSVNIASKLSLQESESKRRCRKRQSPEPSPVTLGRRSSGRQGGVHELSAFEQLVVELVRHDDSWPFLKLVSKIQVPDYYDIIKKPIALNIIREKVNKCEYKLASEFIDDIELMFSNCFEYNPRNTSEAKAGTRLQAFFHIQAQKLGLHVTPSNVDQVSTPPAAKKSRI
UniProt Q12873: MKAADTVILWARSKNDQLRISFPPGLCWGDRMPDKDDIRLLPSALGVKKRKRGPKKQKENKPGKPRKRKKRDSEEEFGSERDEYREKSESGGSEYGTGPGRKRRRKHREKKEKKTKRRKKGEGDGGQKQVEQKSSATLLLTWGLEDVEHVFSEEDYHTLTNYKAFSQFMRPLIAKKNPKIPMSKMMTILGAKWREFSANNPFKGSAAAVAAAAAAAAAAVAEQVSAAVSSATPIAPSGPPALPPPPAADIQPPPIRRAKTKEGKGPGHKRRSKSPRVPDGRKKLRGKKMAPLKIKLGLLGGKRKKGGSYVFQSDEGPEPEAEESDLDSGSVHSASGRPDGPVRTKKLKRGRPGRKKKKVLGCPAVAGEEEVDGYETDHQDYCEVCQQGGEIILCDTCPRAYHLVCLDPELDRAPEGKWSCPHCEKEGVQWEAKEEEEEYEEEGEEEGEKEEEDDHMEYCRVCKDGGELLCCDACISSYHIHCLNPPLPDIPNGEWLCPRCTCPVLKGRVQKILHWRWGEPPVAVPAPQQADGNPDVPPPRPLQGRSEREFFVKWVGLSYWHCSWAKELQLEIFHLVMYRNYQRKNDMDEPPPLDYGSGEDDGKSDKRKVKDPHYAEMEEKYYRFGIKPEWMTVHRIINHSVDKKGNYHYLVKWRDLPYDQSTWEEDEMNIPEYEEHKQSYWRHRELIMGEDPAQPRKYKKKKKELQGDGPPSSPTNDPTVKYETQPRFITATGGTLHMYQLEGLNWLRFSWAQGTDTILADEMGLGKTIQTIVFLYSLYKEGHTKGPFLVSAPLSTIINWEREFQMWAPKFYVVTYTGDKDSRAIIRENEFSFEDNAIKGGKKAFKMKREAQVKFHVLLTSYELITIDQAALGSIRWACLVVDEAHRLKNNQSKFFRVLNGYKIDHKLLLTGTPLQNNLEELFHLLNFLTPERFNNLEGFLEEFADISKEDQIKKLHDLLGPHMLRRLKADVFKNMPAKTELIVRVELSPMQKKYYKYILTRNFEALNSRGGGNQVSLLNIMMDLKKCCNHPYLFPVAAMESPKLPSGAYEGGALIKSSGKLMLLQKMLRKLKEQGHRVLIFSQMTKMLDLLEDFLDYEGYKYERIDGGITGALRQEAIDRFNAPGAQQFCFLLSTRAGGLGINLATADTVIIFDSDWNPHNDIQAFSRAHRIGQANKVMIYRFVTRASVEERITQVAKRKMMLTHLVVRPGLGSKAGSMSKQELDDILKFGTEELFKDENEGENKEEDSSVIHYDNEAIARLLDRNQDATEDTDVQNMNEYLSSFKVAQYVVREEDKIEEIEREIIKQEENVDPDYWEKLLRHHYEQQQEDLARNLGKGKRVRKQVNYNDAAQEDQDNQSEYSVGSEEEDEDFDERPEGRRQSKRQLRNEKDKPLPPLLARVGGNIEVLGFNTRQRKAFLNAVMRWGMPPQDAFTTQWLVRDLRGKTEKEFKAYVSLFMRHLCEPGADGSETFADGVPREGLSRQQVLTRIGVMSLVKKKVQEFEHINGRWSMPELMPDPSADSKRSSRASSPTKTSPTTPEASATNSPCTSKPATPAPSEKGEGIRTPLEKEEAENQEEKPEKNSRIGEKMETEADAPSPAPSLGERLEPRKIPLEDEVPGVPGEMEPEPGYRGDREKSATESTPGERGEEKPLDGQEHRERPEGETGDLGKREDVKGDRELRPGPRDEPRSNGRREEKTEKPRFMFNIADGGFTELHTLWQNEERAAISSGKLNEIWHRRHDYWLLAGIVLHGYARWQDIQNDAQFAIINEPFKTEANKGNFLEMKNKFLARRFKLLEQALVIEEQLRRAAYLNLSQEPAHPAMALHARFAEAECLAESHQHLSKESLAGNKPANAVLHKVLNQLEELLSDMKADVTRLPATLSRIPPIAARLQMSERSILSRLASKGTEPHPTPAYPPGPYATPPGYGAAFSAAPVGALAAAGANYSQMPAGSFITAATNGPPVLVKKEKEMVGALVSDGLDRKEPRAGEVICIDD

Columns and labels:
[1] = molecular target: human LRF/ZBTB7A, endogenous (293T cells; HSPC-derived erythroblasts) (human) (UniProt O95365); assay: co-immunoprecipitation with anti-Flag antibody from 293T lysate, Western blot with anti-LRF antibody
[2] = molecular target: human LRF/ZBTB7A, endogenous (293T cells; HSPC-derived erythroblasts) (human) (UniProt O95365); assay: co-immunoprecipitation (FIG. 17B)
[3] = molecular target: human LRF/ZBTB7A, endogenous (293T cells; HSPC-derived erythroblasts) (human) (UniProt O95365); assay: reciprocal co-immunoprecipitation with anti-GATAD2B antibody, human erythroid cell lysate
[4] = molecular target: GATAD2B, endogenous, in human HSPC-derived erythroblasts (human) (UniProt Q8WXI9); assay: co-immunoprecipitation with anti-LRF antibody, HSPC-derived erythroblasts
[5] = molecular target: GATAD2B, endogenous, in human HSPC-derived erythroblasts (human) (UniProt Q8WXI9); assay: co-immunoprecipitation with anti-LRF antibody, human proerythroblast lysate

| Substance | binding [1] | binding [2] | further results |
| --- | --- | --- | --- |
| Flag-tagged BAZ1A (pcDNA3.1-hACF1-Flag), expressed in 293T cells (from UniProt Q9NRL2 1-1556) | binds |  |  |
| Flag-tagged human CHD3 (pCI-neo3-Flag-hCHD3), expressed in 293T cells (from UniProt Q12873 1-2000) | binds | binds |  |
| Flag-tagged human GATAD2B/p66beta (pCMV-Tag2B-Flag-p66beta), expressed in 293T cells (from UniProt Q8WXI9 1-593) | binds | binds |  |
| GATAD2B, endogenous, in human HSPC-derived erythroblasts (from UniProt Q8WXI9 1-593) |  |  | binding [3]: binds |
| human LRF/ZBTB7A, endogenous (293T cells; HSPC-derived erythroblasts) (from UniProt O95365 1-584) |  |  | binding [4]: binds; binding [5]: binds |
